# Measurements reported in PubChem BioAssay AID1053209 (Peter MacCallum Cancer Centre, 2014).
# Purpose: 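Follow-up of single siRNAs that strengthen doxorubicin killing in osteosarcoma cells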 (follow-up of hits)
# System: mouse primary osteosarcoma cells
# Reagent: single siRNA against mouse genes, 25 nM (text also states 40 nM)
# Time to read-out: about 120 h (48 h before drug, then 72 h with drug)
# Conditions: doxorubicin 100 nM (about IC30-40), added 48 h after transfection, for 72 h
# Detection: 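Viability measured by ATP luminescence with and without doxorubicin, each replicate scaled to non-targeting siRNA NT1, averaged over two replicates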
# Reading the numbers: viability with doxorubicin, vs NT1: higher = more viable cells under doxorubicin; viability ratio, doxorubicin over no drug: higher = less sensitisation to doxorubicin; viability without drug, vs NT1: higher = more viable cells without drug
# Call rule: 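Active when doxorubicin viability is at most 0.7 of NT1 and drug-free viability lies between 0.7 and 1.1, class LC dox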
# Here is one part, drawn at random, of about 1,580 reagents. 207 of them (13%) count as active. 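Rows are single siRNAs; four siRNAs per gene were tested, a gene counting as confirmed only when at least two agree.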 Reagents against one gene are numbered here. No sequences are given here.
target gene,reagent,combined effect class,"viability with doxorubicin, vs NT1","viability ratio, doxorubicin over no drug","viability without drug, vs NT1",outcome
Or10al6,1,normal viability with and without drug,0.94,0.99,0.95,inactive
Or10al6,2,low viability only with doxorubicin; normal without drug,0.6,0.67,0.9,active
Or10al6,3,low viability only with doxorubicin; normal without drug,0.62,0.69,0.9,active
Or10al6,4,normal viability with and without drug,0.73,0.89,0.82,inactive
Spsb1,1,normal viability with and without drug,0.97,1.01,0.96,inactive
Spsb1,2,normal viability with and without drug,0.84,0.82,1.02,inactive
Spsb1,3,normal viability with and without drug,0.96,1,0.96,inactive
Spsb1,4,normal viability with and without drug,1.01,0.97,1.04,inactive
Rasgrf1,1,high viability only without drug,0.98,0.85,1.15,inactive
Rasgrf1,2,normal viability with and without drug,0.94,0.96,0.98,inactive
Rasgrf1,3,normal viability with and without drug,0.97,0.96,1.01,inactive
Rasgrf1,4,normal viability with and without drug,1.06,1,1.06,inactive
Rnpepl1,1,high viability only with doxorubicin,1.15,1.07,1.07,inactive
Rnpepl1,2,low viability with and without drug,0.3,0.54,0.56,inactive
Rnpepl1,3,high viability only without drug,0.93,0.81,1.15,inactive
Rnpepl1,4,normal viability with and without drug,1.02,1.1,0.93,inactive
Tcp11l1,1,low viability with and without drug,0.2,0.32,0.62,inactive
Tcp11l1,2,normal viability with and without drug,1.06,1.04,1.02,inactive
Tcp11l1,3,normal viability with and without drug,1.01,0.97,1.04,inactive
Tcp11l1,4,normal viability with and without drug,1.09,1.01,1.08,inactive
Wee1,1,low viability only with doxorubicin; normal without drug,0.7,0.71,0.98,active
Wee1,2,high viability with and without drug,1.13,1.01,1.12,inactive
Wee1,3,normal viability with and without drug,0.82,0.98,0.84,inactive
Wee1,4,low viability with and without drug,0.19,0.41,0.46,inactive
Rbm34,1,normal viability with and without drug,0.96,0.99,0.97,inactive
Rbm34,2,normal viability with and without drug,0.9,0.85,1.06,inactive
Rbm34,3,normal viability with and without drug,1.01,0.95,1.06,inactive
Rbm34,4,high viability with and without drug,1.14,1.02,1.12,inactive
Mras,1,low viability only with doxorubicin; normal without drug,0.49,0.63,0.78,active
Mras,2,normal viability with and without drug,1.04,0.99,1.05,inactive
Mras,3,normal viability with and without drug,0.92,0.96,0.96,inactive
Mras,4,normal viability with and without drug,0.98,0.96,1.02,inactive
Pnck,1,normal viability with and without drug,1,0.92,1.09,inactive
Pnck,2,normal viability with and without drug,0.94,0.92,1.02,inactive
Pnck,3,normal viability with and without drug,1.09,1.03,1.06,inactive
Pnck,4,normal viability with and without drug,0.98,0.96,1.02,inactive
Tcstv3,1,normal viability with and without drug,1,1.08,0.93,inactive
Tcstv3,2,normal viability with and without drug,0.99,1.1,0.9,inactive
Tcstv3,3,normal viability with and without drug,0.75,0.78,0.96,inactive
Tcstv3,4,normal viability with and without drug,0.98,1.14,0.86,inactive

An excerpt of the results above:
target gene,reagent,combined effect class,"viability with doxorubicin, vs NT1","viability ratio, doxorubicin over no drug","viability without drug, vs NT1",outcome
Mras,4,normal viability with and without drug,0.98,0.96,1.02,inactive
Pnck,1,normal viability with and without drug,1,0.92,1.09,inactive
Pnck,2,normal viability with and without drug,0.94,0.92,1.02,inactive
